Data reported in publication PMC8421141.
Construct, isoform or probe ends are uncertain for at least one entry. For some of these results: A weaker result is weaker than the reference pair of the same experiment.

Key:
[1] = test system: IHF (integration host factor); experiment: AFM (single-molecule imaging, bend angles); settings: 1 IHF:5 bp, AFM on poly-L-lysine surface, binding buffer, recombinant protein
[2] = test system: IHF (integration host factor); experiment: AFM (clustering/bridging); settings: clusters from about 1 IHF:10-25 bp; AFM on poly-L-lysine surface; binding buffer; recombinant protein
[3] = test system: IHF (integration host factor); experiment: AFM (aggregation/bridging); settings: 1 IHF:7 bp, large aggregates; AFM on poly-L-lysine surface; binding buffer; recombinant protein

CAAGACACCGGATCTGCACAACATTGATAACGCCCAATCTTTTTGCTCAGACTCTAACTCATTGATACTCATTTATAAACTCCTTGCAATGTATGTCGTTTCAGCTAAACGGTATCAGCAATGTTTATGTAAAGAAACAGTAAGATAATACTCAACCCGATGTTTGAGTACGGTCATCATCTGACACTACAGACTCTGGCATCGCTGTGAAGACGACGCGAAATTCAGCATTTTCACAAGCGTTATCTTTTACAAAACCGATCTCACTCTCCTTTGATGCGAATGCCAGCGTCAGACATCATATGC (double strand) [1λ306]
binding result ([1]; bends 73, 107 and 147 deg): binds

GATTGCGAGGCTTTGTGCTTCTCTGGAGTGCGACAGGTTTGATGACAAAAAATTAGCGCAAGAAGACAAAAATCACCTTGCGCTAATGCTCTGTTACAGGTCACTAATACCATCTAAGTAGTTGATTCATAGTGACTGCATATGTTGTGTTTTACAGTATTATGTAGTCTGTTTTTTATGCAAAATCTAATTTAATATATTGATATTTATATCATTTTACGTTTCTCGTTCAGCTTTTTTATACTAAGTTGGCATTATAAAAAAGCATTGCTTATCAATTTGTTGCAACGAACAGGTCACTATCAGTCAAAATAAAATCATTATTTGATTTCAATTTTGTCCCACTCCCTGCCTCTGTCATCACGATACTGTGATGCCATGGTGTCCGACTTATGCCCGAGAAGATGTTGAGCAAACTTATCGCTTATCTGCTTCTCATAGAGTCTTGCAGACAAACTGCGCAACTCGTGAAAGGTAG (double strand) [3λ478]
binding result [2]: binds

CTTTGTGCTTCTCTGGAGTGCGACAGGTTTGATGACAAAAAATTAGCGCAAGAAGACAAAAATCACCTTGCGCTAATGCTCTGTTACAGGTCACTAATACCATCTAAGTAGTTGATTCATAGTGACTGCATATGTTGTGTTTTACAGTATTATGTAGTCTGTTTTTTATGCAAAATCTAATTTAATATATTGATATTTATATCATTTTACGTTTCTCGTTCAGCTTTTTTATACTAAGTTGGCATTATAAAAAAGCATTGCTTATCAATTTGTTGCAACGAACAGGTCACTATCAGTCAAAATAAAATCATTATTTGATTTCAATTTTGTCCCACTCCCTGCC (double strand) [3λ343]
binding result [3]: binds

GCATCATCAAGTGCCGGTCGTGCAGCTTCCTCGGCAACGGCGGCAGAAAATTCTGCCAGGGCGGCAAAAACGTCCGAGACGAATGCCAGGTCATCTGAAACAGCAGCGGAACGGAGCGCCTCTGCCGCGGCAGACGCAAAAACAGCGGCGGCGGGGAGTGCGTCAACGGCATCCACGAAGGCGACAGAGGCTGCGGGAAGTGCGGTATCAGCATCGCAGAGCAAAAGTGCGGCAGAAGCGGCGGCAATACGTGCAAAAAATTCGGCAAAACGTGCAGAAGATATAGCTTCAGCTGTCGCGCTTGAGGATGCGGACACAACGAGAAAGGGGATAGTGCAGCTCAGCAGTGCAACCAACAGCA (double strand) [0λ361]
binding result ([1]; bends ~70 and ~110 deg, no 147 deg state): binds more weakly
